US20180256495A1 (MEDRx Co., Ltd., priority 2008, published 2018)

Experiment: Evaluation test of transdermal absorbability (skin penetrability) with a Franz diffusion cell
Assay type: in vitro ADME
Settings: free basic drug, liquid preparation 2 w/w %, rat skin, 32° C.

In the case of COc1cc2c(cc1OC)C(=O)C(CC1CCN(Cc3ccccc3)CC1)C2 (stereo not shown) [donepezil], the “Penetrated Amount (amount of skin-penetrated drug during 3 hours)” value is reported as 25 μg/cm^2.
